Here are results for seven substances from article PMC4706423.

Sequences of proteins named here, by UniProt entry; tags and fusion partners are left off. A change or cut given only in a name is not applied to a line headed by its entry.
UniProt Q66GR3: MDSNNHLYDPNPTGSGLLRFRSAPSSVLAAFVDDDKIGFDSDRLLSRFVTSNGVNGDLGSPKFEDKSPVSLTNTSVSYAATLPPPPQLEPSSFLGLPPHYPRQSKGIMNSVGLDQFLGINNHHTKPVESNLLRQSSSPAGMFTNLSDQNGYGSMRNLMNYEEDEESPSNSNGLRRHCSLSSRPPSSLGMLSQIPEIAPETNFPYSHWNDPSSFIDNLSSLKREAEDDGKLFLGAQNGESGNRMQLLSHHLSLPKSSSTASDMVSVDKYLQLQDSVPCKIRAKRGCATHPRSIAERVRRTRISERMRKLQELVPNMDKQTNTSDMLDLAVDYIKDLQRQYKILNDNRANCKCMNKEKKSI
UniProt Q9C690: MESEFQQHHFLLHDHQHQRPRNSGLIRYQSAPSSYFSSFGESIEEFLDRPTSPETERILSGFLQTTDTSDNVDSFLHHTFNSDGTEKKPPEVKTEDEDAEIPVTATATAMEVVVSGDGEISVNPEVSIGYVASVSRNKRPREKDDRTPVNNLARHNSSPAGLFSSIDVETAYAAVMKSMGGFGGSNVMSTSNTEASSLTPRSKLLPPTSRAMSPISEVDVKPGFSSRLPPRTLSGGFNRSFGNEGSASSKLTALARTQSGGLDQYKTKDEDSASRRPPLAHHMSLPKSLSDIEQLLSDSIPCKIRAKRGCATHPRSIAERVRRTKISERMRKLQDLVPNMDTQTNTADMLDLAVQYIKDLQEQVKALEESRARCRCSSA
UniProt Q9M0R0: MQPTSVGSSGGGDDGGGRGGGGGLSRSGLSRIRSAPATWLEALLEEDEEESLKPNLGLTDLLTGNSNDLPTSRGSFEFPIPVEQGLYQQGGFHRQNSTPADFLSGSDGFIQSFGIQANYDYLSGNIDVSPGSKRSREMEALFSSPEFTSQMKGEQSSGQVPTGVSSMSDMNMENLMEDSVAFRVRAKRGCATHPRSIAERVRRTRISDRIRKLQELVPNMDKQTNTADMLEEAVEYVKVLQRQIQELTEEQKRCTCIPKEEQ
UniProt Q9C8P8: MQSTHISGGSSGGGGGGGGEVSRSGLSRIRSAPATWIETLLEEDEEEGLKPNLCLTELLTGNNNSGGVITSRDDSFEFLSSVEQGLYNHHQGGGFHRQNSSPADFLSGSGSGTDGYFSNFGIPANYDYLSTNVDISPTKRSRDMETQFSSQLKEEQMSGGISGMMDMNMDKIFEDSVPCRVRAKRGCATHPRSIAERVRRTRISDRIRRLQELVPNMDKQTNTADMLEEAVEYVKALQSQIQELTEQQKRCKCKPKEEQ

Where a chain is given by its changes, count along the chain named. Results are given in words; binding and its absence hold for the method and conditions named. For some assays here: Binding can be weak; no strength is given. Sequences can lack the tags named with a protein. For some assays here: In cells and extracts the contact can be indirect.

The target in test [1] is T1, AtCFL1, full length, GAL4 DNA binding domain fusion (pDEST32-AtCFL1) (Arabidopsis thaliana) (UniProt Q5HZ54).
T1 sequence: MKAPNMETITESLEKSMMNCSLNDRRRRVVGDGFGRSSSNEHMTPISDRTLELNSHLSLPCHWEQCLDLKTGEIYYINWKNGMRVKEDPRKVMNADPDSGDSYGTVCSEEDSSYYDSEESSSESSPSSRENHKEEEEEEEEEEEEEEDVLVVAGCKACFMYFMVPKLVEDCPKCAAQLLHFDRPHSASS
The experiment in a line: two-hybrid; bait (pDEST32) and prey (pDEST22) co-transformed into yeast strain AH109; growth on SD-Leu-Trp-His and SD-Leu-Trp-His with 5 mM 3-amino-1,2,4-triazole; three biological replicates.

Test [2] concerns the target T1, AtCFL1, full length, GAL4 DNA binding domain fusion (pDEST32-AtCFL1) (Arabidopsis thaliana). The test is described as follows: two-hybrid; mating-based screen of an Arabidopsis transcription factor library (1598 transcription factors) with the bait pDEST32-AtCFL1 in yeast strain AH109.
In test [3] the target is T2, AtCFL1 C50, C-terminal 50 amino acid residues of AtCFL1, GAL4 DNA binding domain fusion (Arabidopsis thaliana) (UniProt Q5HZ54).
T2 sequence: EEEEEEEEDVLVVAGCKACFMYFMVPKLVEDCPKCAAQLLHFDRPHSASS
The test is described as follows: two-hybrid; bait (pDEST32) and prey (pDEST22) co-transformed into yeast strain AH109; growth on SD-Leu-Trp-His and SD-Leu-Trp-His with 5 mM 3-amino-1,2,4-triazole; three biological replicates.

The target in test [4] is T3, AtCFL1 C77, C-terminal 77 amino acid residues of AtCFL1, GAL4 DNA binding domain fusion (Arabidopsis thaliana) (UniProt Q5HZ54).
T3 sequence: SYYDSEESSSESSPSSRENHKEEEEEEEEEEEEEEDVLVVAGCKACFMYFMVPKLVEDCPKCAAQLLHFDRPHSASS
The description is as above.

In test [5] the target is T4, AtCFL1 C98, C-terminal 98 amino acid residues of AtCFL1, GAL4 DNA binding domain fusion (Arabidopsis thaliana) (UniProt Q5HZ54).
T4 sequence: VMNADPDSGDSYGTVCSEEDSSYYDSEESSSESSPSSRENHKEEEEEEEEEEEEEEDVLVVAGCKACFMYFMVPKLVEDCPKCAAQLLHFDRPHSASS
Described as above.

For test [6], the target named is T5, AtCFL1 with C155 and C158 residues mutated (C155A C158A), GAL4 DNA binding domain fusion (Arabidopsis thaliana) (UniProt Q5HZ54).
T5 sequence: T1 sequence with C155A, C158A
The test is described as above.

Test [7] addresses T6, AtCFL1 with C155, C158, C171 and C174 residues mutated (C155A C158A C171A C174A), GAL4 DNA binding domain fusion (Arabidopsis thaliana) (UniProt Q5HZ54).
T6 sequence: T1 sequence with C155A, C158A, C171A, C174A
Described as above.

Test [8] addresses T7, AtCFL1 with C171 and C174 residues mutated (C171A C174A), GAL4 DNA binding domain fusion (Arabidopsis thaliana) (UniProt Q5HZ54).
T7 sequence: T1 sequence with C171A, C174A
The test is described as above.

Test [9] has as its target T8, AtCFL1 ΔC20, AtCFL1 with the C-terminal 20 amino acid residues deleted, GAL4 DNA binding domain fusion (Arabidopsis thaliana) (UniProt Q5HZ54).
T8 sequence: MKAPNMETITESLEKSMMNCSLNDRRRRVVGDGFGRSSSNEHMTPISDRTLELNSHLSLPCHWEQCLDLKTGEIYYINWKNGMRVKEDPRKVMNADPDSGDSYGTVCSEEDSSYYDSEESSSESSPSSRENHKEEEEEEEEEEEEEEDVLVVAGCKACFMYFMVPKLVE
The test is described as above.

Test [10] addresses T9, AtCFL1C, C-terminal of AtCFL1 with 119 amino acid residues, GAL4 DNA binding domain fusion (Arabidopsis thaliana) (UniProt Q5HZ54).
T9 sequence: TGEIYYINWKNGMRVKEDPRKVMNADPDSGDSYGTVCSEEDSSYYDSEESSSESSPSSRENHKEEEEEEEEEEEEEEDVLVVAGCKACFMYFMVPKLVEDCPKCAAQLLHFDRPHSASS
The test is described as above.

For test [11], the target named is T10, AtCFL1N, N-terminal of AtCFL1 with 70 amino acid residues, GAL4 DNA binding domain fusion (Arabidopsis thaliana) (UniProt Q5HZ54).
T10 sequence: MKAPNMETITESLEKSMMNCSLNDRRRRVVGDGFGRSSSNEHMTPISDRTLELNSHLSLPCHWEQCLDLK
Described as above.

The target in test [12] is T11, AtCFL1-myc (Arabidopsis thaliana) (UniProt Q5HZ54).
T11 sequence: T1 sequence
The test is described as follows: co-IP; AtCFL1-myc and GFP-CFLAP1 transiently co-expressed in Nicotiana benthamiana leaves; procedure as in ref. 58; two biological replicates.

Test [13] addresses T12, cLUC-AtCFL1 (Arabidopsis thaliana) (UniProt Q5HZ54).
T12 sequence: T1 sequence
The test is described as follows: split reporter; firefly luciferase complementation imaging; nLUC and cLUC fusions co-infiltrated into Nicotiana benthamiana leaves, luciferin sprayed, CCD imaging.

On to “FBH4, two-hybrid prey in pDEST22 (from UniProt Q66GR3)”, for which the binding result in test [1] is “no binding”.
As to “AtCFL1 associated protein 1 (CFLAP1), GAL4 activation domain fusion (pDEST22-CFLAP1) (from UniProt Q9C690)”, the binding result in test [2] was “binds”; in [3] it was “binds”; in test [4], “binds”; in test [5], “binds”; in test [6] it was “no binding”; in [7], “no binding”. Also, the binding result in test [8] is reported as “no binding”; in [9] it was “no binding”; in test [1], “binds”; in test [10], “binds”; in test [11], “no binding”.
As to GFP-CFLAP1 (from UniProt Q9C690), in test [12], the binding result was “binds”.
“FBH2, two-hybrid prey in pDEST22 (from UniProt Q9M0R0)”: in [1], the binding entry was “no binding”.
Consider CFLAP1-nLUC (from UniProt Q9C690), for which the binding result in test [13] was “binds”.
On to “CFLAP2 (FBH1), two-hybrid prey in pDEST22 (from UniProt Q9C8P8)”, for which the binding result is given as “no binding” in [6], “no binding” in [7], “no binding” in [8] and “binds” in test [1].
Turning to CFLAP2-nLUC (from UniProt Q9C8P8), in test [13], the binding result is recorded as “binds”.
